Experimental data: the supplement of paper PMC6078165
The reference is the same well before dosing, and untreated signal decays as well.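 Fibroblast labels denote human fibroblasts, mainly primary ones from uterus (C12385, HUF), lung (H6013), bone (Hs27A), adrenal (HADF) and skin (WS1), plus mammary HMF and breast cancer-associated Hs343T. Cancer cells are basal-like or mesenchymal-like triple-negative breast cancer lines. A hit is a response shift exceeding 3x replicate standard deviation. The tissue of the other fibroblasts is not given here.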

Tested on: BT20
Assay: relative JC-1 red fluorescence (viability) vs pre-drug, coculture with fibroblast (fraction); higher = more viable cancer cells
Settings: 100 µM
Experimental: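 JC-1 labelled TNBC cells cocultured 1:1 (1,500 cells each) with CellTrace Violet stained primary or stromal fibroblasts in 384-well plates in FluoroBrite medium, treated with one of 42 anticancer drugs at 0.1, 1, 10 or 100 uM. JC-1 red fluorescence (mitochondrial integrity in cancer cells only) was read by plate reader every 8 h for 72 h. Values are normalised to each well's pre-drug value. The stock of one drug was tenfold lower, so its dose labels may be too high.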

C#Cc1cccc(Nc2ncnc3cc(OCCOC)c(OCCOC)cc23)c1 [Erlotinib]
relative JC-1 red fluorescence
Settings | 8 h | 16 h | 24 h | 32 h | 40 h | 48 h | 56 h | 64 h | 72 h
coculture fibroblast: C12385 | 0.899 | 0.847 | 0.823 | 0.776 | 0.738 | 0.727 | 0.708 | 0.699 | 0.692
coculture fibroblast: H6013 | 0.965 | 0.789 | 0.903 | 0.712 | 0.839 | 0.735 | 0.903 | 0.764 | 0.874
coculture fibroblast: H6019 | 0.912 | 0.862 | 0.84 | 0.781 | 0.749 | 0.735 | 0.706 | 0.689 | 0.675
coculture fibroblast: H6076 | 0.754 | 0.9645 | 0.895 | 0.863 | 0.844 | 0.828 | 0.837 | 0.834 | 0.824
coculture fibroblast: H6231 | 0.979 | 0.8895 | 0.818 | 0.764 | 0.731 | 0.703 | 0.689 | 0.675 | 0.652
coculture fibroblast: HADF | 0.905 | 0.872 | 0.975 | 0.92 | 0.838 | 0.919 | 0.823 | 0.845 | 0.819
coculture fibroblast: HCFa | 0.855 | 0.863 | 0.893 | 0.929 | 0.882 | 0.843 | 0.831 | 0.909 | 0.829
coculture fibroblast: HCPF | 0.912 | 0.917 | 0.846 | 0.805 | 0.768 | 0.731 | 0.699 | 0.686 | 0.666
coculture fibroblast: HHSteC | 0.9926 | 0.862 | 0.858 | 0.857 | 0.837 | 0.905 | 0.8876 | 0.886 | 0.819
coculture fibroblast: HMF | 0.808 | 0.925 | 0.8114 | 0.749 | 0.7146 | 0.6599 | 0.601 | 0.578 | 0.546
coculture fibroblast: HPFa | 0.9464 | 0.907 | 0.893 | 0.848 | 0.844 | 0.825 | 0.818 | 0.81 | 0.779
coculture fibroblast: HUF | 0.808 | 0.79 | 0.813 | 0.741 | 0.833 | 0.791 | 0.767 | 0.755 | 0.752
coculture fibroblast: Hs5 | 0.803 | 0.929 | 0.858 | 0.81 | 0.779 | 0.741 | 0.708 | 0.688 | 0.672
coculture fibroblast: Hs27A | 0.815 | 0.84 | 0.823 | 0.752 | 0.835 | 0.8 | 0.861 | 0.832 | 0.7845
coculture fibroblast: Hs343T | 0.764 | 0.922 | 0.821 | 0.782 | 0.746 | 0.688 | 0.646 | 0.618 | 0.584
coculture fibroblast: WS1 | 0.88 | 0.814 | 0.794 | 0.751 | 0.699 | 0.689 | 0.676 | 0.657 | 0.653
